Source: publication PMC12224998
No constants are given. Whether binding was seen depends on the method and setting. Binding seen in cells or lysates may run through a third protein. Binding calls can cover weak binding; strength is not graded here.

By UniProt entry, the sequences of proteins in these tests, tags left out. Where a name states a change or a piece, a line headed by the entry shows the natural chain unless it says otherwise. Residues count along the entry.
UniProt P15941, residues 24-1255: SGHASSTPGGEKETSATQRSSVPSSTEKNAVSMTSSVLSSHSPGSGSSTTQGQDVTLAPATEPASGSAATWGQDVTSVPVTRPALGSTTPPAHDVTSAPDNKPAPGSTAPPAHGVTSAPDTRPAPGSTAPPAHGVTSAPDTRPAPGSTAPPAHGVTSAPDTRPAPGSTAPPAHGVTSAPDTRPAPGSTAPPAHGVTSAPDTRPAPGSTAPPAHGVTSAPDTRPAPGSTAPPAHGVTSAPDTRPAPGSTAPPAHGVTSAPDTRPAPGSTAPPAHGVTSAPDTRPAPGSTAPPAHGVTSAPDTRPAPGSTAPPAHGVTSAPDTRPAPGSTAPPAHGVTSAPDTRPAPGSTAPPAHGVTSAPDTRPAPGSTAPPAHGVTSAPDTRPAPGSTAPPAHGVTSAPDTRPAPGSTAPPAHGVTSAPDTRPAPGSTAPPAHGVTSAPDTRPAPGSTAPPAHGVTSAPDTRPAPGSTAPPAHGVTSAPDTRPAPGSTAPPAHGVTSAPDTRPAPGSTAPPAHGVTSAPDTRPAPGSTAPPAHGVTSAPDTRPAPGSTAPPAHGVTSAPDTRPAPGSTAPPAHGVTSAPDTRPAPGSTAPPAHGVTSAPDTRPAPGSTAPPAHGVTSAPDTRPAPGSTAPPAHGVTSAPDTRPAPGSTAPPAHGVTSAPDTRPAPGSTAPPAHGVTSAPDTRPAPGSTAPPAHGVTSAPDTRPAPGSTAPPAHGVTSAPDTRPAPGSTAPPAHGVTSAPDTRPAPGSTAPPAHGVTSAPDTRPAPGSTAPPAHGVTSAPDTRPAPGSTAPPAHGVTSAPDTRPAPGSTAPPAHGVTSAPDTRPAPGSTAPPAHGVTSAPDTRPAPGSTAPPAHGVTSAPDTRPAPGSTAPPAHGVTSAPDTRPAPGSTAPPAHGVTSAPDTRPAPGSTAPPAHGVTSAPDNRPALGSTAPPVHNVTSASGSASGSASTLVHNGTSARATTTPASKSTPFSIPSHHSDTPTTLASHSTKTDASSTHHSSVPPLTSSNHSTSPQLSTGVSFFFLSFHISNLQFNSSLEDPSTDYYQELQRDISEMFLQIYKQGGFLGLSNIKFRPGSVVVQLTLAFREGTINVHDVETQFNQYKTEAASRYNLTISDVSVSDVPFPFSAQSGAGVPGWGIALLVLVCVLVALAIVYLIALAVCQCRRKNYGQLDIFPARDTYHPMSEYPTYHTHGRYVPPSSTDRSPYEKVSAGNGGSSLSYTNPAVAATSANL
UniProt P67775: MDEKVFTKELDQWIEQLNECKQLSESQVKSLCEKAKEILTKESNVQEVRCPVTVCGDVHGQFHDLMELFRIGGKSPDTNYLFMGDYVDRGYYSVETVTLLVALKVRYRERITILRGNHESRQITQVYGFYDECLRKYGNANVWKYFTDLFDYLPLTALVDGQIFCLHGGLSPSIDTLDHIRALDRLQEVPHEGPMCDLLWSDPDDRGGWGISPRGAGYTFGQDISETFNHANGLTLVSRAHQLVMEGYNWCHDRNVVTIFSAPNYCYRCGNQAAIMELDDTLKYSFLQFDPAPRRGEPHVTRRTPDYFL

What was measured:
[1] = biological target: MUC1 full length with HA tag at the C-terminal (UniProt P15941); assay: co-IP; MUC1-HA-overexpressing HEK293T cells; NETN150 lysis buffer, antibody overnight at 4 °C, protein A/G plus agarose, western blot (Figure S3C)
[2] = biological target: PP2A-Cα (endogenous, NCI-H69) (human (endogenous in NCI-H69)) (UniProt P67775); assay: co-IP; endogenous proteins, NCI-H69/g-Ctrl and NCI-H69/g-MUC1 cells; IP with anti-PP2A-Cα antibody (Figure 6A) or anti-PKCζ antibody (Figure 6B), western blot

Row | binding [1] | binding [2] | Molecule
1 | binds | – | PP2A Cα subunit (from UniProt P67775)
2 | – | binds | protein kinase C ζ (PKCζ) (protein, UniProt Q05513 1-592) MPSRTGPKMEGSGGRVRLKAHYGGDIFITSVDAATTFEELCEEVRDMCRLHQQHPLTLKWVDSEGDPCTVSSQMELEEAFRLARQCRDEGLIIHVFPSTPEQPGLPCPGEDKSIYRRGARRWRKLYRANGHLFQAKRFNRRAYCGQCSERIWGLARQGYRCINCKLLVHKRCHGLVPLTCRKHMDSVMPSQEPPVDDKNEDADLPSEETDGIAYISSSRKHDSIKDDSEDLKPVIDGMDGIKISQGLGLQDFDLIRVIGRGSYAKVLLVRLKKNDQIYAMKVVKKELVHDDEDIDWVQTEKHVFEQASSNPFLVGLHSCFQTTSRLFLVIEYVNGGDLMFHMQRQRKLPEEHARFYAAEICIALNFLHERGIIYRDLKLDNVLLDADGHIKLTDYGMCKEGLGPGDTTSTFCGTPNYIAPEILRGEEYGFSVDWWALGVLMFEMMAGRSPFDIITDNPDMNTEDYLFQVILEKPIRIPRFLSVKASHVLKGFLNKDPKERLGCRPQTGFSDIKSHAFFRSIDWDLLEKKQALPPFQPQITDDYGLDNFDTQFTSEPVQLTPDDEDAIKRIDQSEFEGFEYINPLLLSTEESV
